Measured values reported in US8440666B2, “Pyridazinone compounds and P2X7 receptor inhibitors” (Nissan Chemical Industries, Ltd., priority 2007, dated 2013).
The structures given here were assigned with low confidence; some may be wrong.

Amino acid sequences for entries named in this document (tags omitted).
UniProt Q99572, whole entry: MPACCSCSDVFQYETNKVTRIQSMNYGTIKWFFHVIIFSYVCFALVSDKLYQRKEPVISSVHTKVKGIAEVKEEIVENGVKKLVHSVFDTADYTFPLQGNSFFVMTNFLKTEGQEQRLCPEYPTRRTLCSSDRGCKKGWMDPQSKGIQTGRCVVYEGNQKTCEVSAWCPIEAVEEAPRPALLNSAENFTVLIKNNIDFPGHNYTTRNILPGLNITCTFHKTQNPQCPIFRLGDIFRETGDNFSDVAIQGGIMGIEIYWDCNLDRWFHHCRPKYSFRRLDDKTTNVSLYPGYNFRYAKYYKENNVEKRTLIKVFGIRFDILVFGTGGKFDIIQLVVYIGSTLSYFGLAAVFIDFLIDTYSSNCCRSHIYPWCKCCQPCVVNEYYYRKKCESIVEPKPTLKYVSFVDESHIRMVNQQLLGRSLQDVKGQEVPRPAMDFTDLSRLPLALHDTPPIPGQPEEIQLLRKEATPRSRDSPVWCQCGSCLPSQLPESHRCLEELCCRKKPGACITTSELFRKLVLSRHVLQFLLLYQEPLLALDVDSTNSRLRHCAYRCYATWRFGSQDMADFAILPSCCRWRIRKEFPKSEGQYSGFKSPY

Target: Human P2X7 (hP2X7) receptor (Homo sapiens, UniProt Q99572)
Test: Dye assay: BzATP-induced Yo-Pro-1 uptake in HEK293 cells stably expressing hP2X7
Conditions: BzATP (0.1 mM)-induced Yo-Pro-1 uptake, compounds 30 min pre-treatment, 90 min incubation
Excerpt: Human P2X7 (hP2×7) was cloned from a normal human brain total RNA library by reverse transcription (using SuperScript II (Invitrogen)) and PCR (using KOD-plus-(TOYOBO)). PCR primers were designed according to hP2X7 sequence registered in GENBANK with a putative amino acid sequence consisting of 595 amino acid residues. The PCR fragments were inserted into pcDNA3.1/myc-HisA vector (Invitrogen) and sequenced for confirmation.
HEK293 cells were transfected with hP2×7/pcDNA3.1/myc-HisA by lipofection, and 1 day later, the cells were treated with 1 mg/mL G418, and resistant cells were selected by appropriately dilution. The resistant cells were cloned by reseeding at a low density.
P2X7 receptor antagonists were screened by a dye uptake assay using HEK293 cells stably expressing hP2×7. […] Then, the fluorescence (indicating the BzATP-induced Yo-Pro-1 uptake mediated by the P2X7 receptor) was measured with a microplate reader (excitation wavelength: 485 nm, emission wavelength: 535 nm). The % inhibition rates were calculated and plotted against the logarithms of the concentrations to determine IC50.

IC50: 0.32 µM
Structure (SMILES): CCCCCCCCCCCCCCCCNc1cnn(CC(=O)NCc2ccncc2)c(=O)c1Br
